Measurements taken from article PMC10299824.

By UniProt entry, the sequences of proteins in these tests, tags left out. Where a name states a change or a piece, a line headed by the entry shows the natural chain unless it says otherwise.
UniProt P05554: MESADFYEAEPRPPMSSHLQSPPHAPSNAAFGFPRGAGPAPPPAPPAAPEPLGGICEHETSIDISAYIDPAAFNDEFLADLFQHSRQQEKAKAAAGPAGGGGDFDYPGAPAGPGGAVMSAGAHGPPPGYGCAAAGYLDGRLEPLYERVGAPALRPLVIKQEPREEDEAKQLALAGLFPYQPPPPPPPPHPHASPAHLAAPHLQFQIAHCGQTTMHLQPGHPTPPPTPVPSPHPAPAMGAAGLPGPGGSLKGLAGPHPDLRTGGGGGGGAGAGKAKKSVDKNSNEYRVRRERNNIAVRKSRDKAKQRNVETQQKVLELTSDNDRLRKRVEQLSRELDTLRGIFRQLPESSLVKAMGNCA
UniProt Q60974: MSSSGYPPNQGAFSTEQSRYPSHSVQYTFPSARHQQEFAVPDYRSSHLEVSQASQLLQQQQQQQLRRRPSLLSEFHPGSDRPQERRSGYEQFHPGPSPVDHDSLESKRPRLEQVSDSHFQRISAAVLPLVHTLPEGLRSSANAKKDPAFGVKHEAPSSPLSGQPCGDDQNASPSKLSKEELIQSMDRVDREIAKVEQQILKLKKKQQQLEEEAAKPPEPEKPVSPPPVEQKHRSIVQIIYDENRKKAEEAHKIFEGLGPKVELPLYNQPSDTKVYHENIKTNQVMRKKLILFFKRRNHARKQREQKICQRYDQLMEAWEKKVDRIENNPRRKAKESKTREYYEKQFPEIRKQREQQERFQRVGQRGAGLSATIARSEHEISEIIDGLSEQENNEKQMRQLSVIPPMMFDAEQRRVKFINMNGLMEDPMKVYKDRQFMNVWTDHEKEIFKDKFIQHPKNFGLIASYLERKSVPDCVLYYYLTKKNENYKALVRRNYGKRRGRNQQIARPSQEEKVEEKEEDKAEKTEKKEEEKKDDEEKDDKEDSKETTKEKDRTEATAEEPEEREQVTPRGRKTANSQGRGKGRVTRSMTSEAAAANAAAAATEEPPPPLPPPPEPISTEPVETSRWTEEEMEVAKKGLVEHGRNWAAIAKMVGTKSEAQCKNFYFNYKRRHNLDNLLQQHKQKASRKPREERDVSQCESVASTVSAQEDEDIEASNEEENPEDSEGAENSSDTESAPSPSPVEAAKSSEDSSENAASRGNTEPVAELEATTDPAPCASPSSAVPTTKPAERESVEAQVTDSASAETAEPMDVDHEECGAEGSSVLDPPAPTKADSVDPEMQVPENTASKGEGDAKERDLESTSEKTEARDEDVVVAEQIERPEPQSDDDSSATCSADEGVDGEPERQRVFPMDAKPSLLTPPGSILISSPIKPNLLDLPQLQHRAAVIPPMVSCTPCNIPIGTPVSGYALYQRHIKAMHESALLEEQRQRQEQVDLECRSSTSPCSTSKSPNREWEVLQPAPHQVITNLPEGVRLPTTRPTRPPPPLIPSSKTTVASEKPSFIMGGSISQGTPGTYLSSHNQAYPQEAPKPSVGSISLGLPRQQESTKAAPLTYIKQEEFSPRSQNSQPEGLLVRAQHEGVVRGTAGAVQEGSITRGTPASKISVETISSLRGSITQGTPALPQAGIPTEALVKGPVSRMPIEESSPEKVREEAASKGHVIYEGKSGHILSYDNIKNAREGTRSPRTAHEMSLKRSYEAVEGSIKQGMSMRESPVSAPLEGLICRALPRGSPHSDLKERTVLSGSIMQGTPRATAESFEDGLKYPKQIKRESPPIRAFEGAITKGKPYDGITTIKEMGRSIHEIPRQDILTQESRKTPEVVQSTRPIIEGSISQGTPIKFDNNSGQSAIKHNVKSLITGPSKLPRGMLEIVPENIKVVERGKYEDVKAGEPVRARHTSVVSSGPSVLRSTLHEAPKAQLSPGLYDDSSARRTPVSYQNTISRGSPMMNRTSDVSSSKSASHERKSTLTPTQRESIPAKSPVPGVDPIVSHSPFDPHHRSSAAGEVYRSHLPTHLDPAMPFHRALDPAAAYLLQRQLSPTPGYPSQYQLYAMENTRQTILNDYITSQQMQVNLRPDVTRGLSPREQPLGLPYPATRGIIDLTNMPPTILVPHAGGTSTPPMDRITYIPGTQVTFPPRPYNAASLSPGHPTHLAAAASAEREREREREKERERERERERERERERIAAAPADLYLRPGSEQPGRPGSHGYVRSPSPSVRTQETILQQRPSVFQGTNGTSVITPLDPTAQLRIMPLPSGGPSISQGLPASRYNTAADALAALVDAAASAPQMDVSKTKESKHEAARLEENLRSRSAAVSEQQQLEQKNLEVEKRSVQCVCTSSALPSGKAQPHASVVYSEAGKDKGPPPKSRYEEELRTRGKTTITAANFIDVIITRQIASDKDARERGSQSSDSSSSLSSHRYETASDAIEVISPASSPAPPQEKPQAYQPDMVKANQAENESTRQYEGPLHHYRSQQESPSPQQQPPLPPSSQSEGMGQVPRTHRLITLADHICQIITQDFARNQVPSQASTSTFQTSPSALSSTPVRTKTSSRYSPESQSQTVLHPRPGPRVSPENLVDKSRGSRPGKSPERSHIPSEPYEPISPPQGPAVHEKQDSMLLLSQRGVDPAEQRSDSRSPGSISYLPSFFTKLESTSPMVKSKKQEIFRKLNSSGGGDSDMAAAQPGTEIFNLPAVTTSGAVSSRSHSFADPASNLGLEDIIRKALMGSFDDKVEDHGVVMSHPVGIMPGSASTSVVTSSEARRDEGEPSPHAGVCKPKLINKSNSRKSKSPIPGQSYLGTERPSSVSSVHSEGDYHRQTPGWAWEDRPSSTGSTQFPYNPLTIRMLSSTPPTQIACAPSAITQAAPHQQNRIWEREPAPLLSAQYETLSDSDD

B1: Ebf1 (protein, UniProt Q07802 1-591)
chain: MFGIQESIQRSGSSMKEEPLGSGMNAVRTWMQGAGVLDANTAAQSGVGLARAHFEKQPPSNLRKSNFFHFVLALYDRQGQPVEIERTAFVGFVEKEKEANSEKTNNGIHYRLQLLYSNGIRTEQDFYVRLIDSMTKQAIVYEGQDKNPEMCRVLLTHEIMCSRCCDKKSCGNRNETPSDPVIIDRFFLKFFLKCNQNCLKNAGNPRDMRRFQVVVSTTVNVDGHVLAVSDNMFVHNNSKHGRRARRLDPSEGTPSYLEHATPCIKAISPSEGWTTGGATVIIIGDNFFDGLQVIFGTMLVWSELITPHAIRVQTPPRHIPGVVEVTLSYKSKQFCKGTPGRFIYTALNEPTIDYGFQRLQKVIPRHPGDPERLPKEVILKRAADLVEALYGMPHNNQEIILKRAADIAEALYSVPRNHNQLPALANTSVHAGMMGVNSFSGQLAVNVSEASQATNQGFTRNSSSVSPHGYVPSTTPQQTNYNSVTTSMNGYGSAAMSNLGGSPTFLNGSAANSPYAIVPSSPTMASSTSLPSNCSSSSGIFSFSPANMVSAVKQKSAFAPVVRPQTSPPPTCTSTNGNSLQAISGMIVPPM

Target: full length (p42) C/EBPα^R35A fused to the biotin ligase TurboID (UniProt P05554)
Test: proximity labelling; C/EBPα-TurboID fusions in Cebpa/Cebpb double knockout mouse pre-B cell line; Dox 6 hr, 500 µM biotin 30 min; biotinylated proteins pulled down, LC-MS/MS; TurboID only as control

Molecule	binding
Ncor1 (from UniProt Q60974 1-2453)	binds
B1	binds

No constants are given. Whether binding was seen depends on the method and setting. Binding seen in cells or lysates may run through a third protein. Here binding means that the protein was enriched with, or labelled near, the bait; the list need not be complete.
